Experimental findings from US5780590A (Rhone-Poulenc Rorer Pharmaceuticals Inc., priority 1996, dated 1998) are described below.

A short description of this series: general procedure: solution-phase peptide synthesis; TBTU. As to conditions: coupling step.

Bounds are passed on as bounds.

As for “CBZ-PipBu-N(Et)Gly-(L)-Asp(OBzl)-(L)-Cha-NH2”, the “final HPLC purity” value (HPLC (A %)) is listed as greater than 99 A %. In addition, under “theoretical yield”, the step yield worked out at 84%.
The substance “CBZ-PipBuen-N(Et)Gly-(L)-Asp(OBzl)-(L)-Cha-NH2” yielded a step yield of 83%.
